PubChem BioAssay AID1259308 | NCATS | 2017

Screen: 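Knock-downs that increase output of a recombinant reporter protein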 (primary screen)
Cell system: human HEK293 embryonic kidney cells stably expressing firefly luciferase (HEK-CMV-Luc2-Hygro)
Reagent: single siRNA against human genes, 0.8 pmol siRNA per well
Time to read-out: 72 h
Measurement: 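Luciferase light (ONE-Glo) measured on one replicate plate set and viability (CellTiter-Glo) on the other, scaled to a negative control siRNA, with robust z-scores and luciferase per cell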
Direction: total luciferase, z-score: higher = more reporter protein produced
Hit rule: 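An siRNA counts as active if its total luciferase robust z-score exceeds 3; genes with two or more such siRNAs out of three were retested with fresh siRNAs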
Calls: active = raised luciferase; inactive = no rise
Here is one part, drawn at random, of about 59,000 deposited reagents. Over the whole deposit, about 1,510 (2.6%) were called active. 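Calls use total luciferase alone and ignore viability, so some active siRNAs may act by altering cell number.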 Further read-outs or replicates are left out here.

With knock-down of PRMT7 (GeneID 54496) [SID160741789], the screen gave total luciferase, z-score 2.65; inactive. Against PRMT7 (GeneID 54496) [SID160741790] the deposit lists total luciferase, z-score -0.734; inactive. Depletion of PRMT7 (GeneID 54496) [SID160741791] gave: total luciferase, z-score -0.222; inactive. With knock-down of DCHS1 (GeneID 8642) [SID160720488] the results were total luciferase, z-score 0.947; inactive. DCHS1 (GeneID 8642) [SID160720489] scored total luciferase, z-score -0.13; inactive. After knock-down of DCHS1 (GeneID 8642) [SID160720490], the record shows total luciferase, z-score 0.416; inactive.

Quoted from the listing, 2 entries:
DCHS1 (GeneID 8642) [SID160720488] — total luciferase, z-score = 0.947; Outcome = inactive
DCHS1 (GeneID 8642) [SID160720489] — total luciferase, z-score = -0.13; Outcome = inactive

Next records follow.
Knock-down of CIAO2B (GeneID 51647) [SID160741146] resulted in: total luciferase, z-score 0.3; inactive. Silencing of CIAO2B (GeneID 51647) [SID160741147] came out at: total luciferase, z-score 0.362; inactive. Knock-down of CIAO2B (GeneID 51647) [SID160741148] gave: total luciferase, z-score -0.683; inactive. After knock-down of HIP1R (GeneID 9026) [SID160721296] the results were total luciferase, z-score -2.3; inactive. With knock-down of HIP1R (GeneID 9026) [SID160721297] the results were total luciferase, z-score 1.15; inactive. For HIP1R (GeneID 9026) [SID160721298], the entry reads total luciferase, z-score 0.941; inactive.
